Assay results from the supplement of paper PMC12823440, “Inhibitors supercharge kinase turnover through native proteolytic circuits” (Nature, 2025).
Counter-ions that a name gives are not always drawn. The list shows a part of the results. Hit calls seldom repeat between salt and free forms of one compound.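 Kinases, fused to nanoluciferase, were expressed in K562 cells; luminescence was measured every 4 h from 2 to 18 h as percent of control (DMSO = 100%, positive control = 0%). A time point is decreased if signal falls significantly (2 sigma). Hits were called by the authors by a rule that is not shown; the count of time points alone does not decide it.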

Chains of the proteins cited; added tags and fusions are not shown. Lines headed by an entry give the natural chain unless they say otherwise; changes in a name come on top.
UniProt Q9Y6E0: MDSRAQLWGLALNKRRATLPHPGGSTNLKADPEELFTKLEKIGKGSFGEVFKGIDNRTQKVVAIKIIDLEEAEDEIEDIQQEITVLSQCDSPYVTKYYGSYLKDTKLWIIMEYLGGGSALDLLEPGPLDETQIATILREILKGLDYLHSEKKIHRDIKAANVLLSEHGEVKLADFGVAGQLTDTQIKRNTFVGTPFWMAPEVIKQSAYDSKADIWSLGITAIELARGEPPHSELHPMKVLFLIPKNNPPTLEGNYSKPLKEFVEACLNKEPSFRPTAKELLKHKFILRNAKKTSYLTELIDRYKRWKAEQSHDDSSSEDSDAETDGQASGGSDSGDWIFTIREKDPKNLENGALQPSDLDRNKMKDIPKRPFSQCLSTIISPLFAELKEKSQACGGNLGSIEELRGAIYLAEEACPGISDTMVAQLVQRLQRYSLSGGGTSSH

target: SRC (UniProt P12931); test: kinase-Nluc reporter destabilization hit call (1 = scored as downregulated) (binary); higher = compound decreases kinase abundance; conditions: K562; 2-18 h

kinase-Nluc reporter destabilization hit call, inactive:
CC#CC(=O)N1CC[C@@H](n2c(=O)n(-c3ccc(Oc4ccccc4)cc3)c3c(N)ncnc32)C1 [Tirabrutinib] (10 µM) 0
C[C@@]1(c2ncncc2F)NC(=O)c2cc(-c3cn[nH]c3)ccc21 (10 µM) 0
COc1ccc(Cl)c(Nc2nc3ccccc3nc2NS(=O)(=O)c2cccc(NC(=O)C(C)(C)N)c2)c1 [Pilaralisib] (10 µM) 0
O=Nc1c(-c2c(O)[nH]c3ccc(I)cc23)[nH]c2ccccc12 [5-Iodo-indirubin-3'-monoxime] (10 µM) 0
COc1cc2nccc(Oc3ccc(NC(=O)NC4CC4)c(Cl)c3)c2cc1C(N)=O [Lenvatinib] (10 µM) 0
C[C@]1(O)CCN(c2nc(N3C[C@H](O)[C@@H](O)C3)cc(C(F)(F)F)c2C#N)C1 (10 µM) 0
Cn1cnc(Cn2ccc3ccc(CNCc4[nH]c5ccccc5c4[C@H]4NC(=O)c5ccc(O)cc54)cc32)c1 (10 µM) 0

target: STK24 (UniProt Q9Y6E0); test: as above; conditions: K562; 2-18 h

kinase-Nluc reporter destabilization hit call, inactive:
O=C(CSC1=NCCN1)NC1CCCCCC1 [ICCB-19 (hydrochloride)] (2.5 µM) 0
CCCS(=O)(=O)Nc1ccc(F)c(C(=O)c2c[nH]c3ncc(-c4ccc(Cl)cc4)cc23)c1F [Vemurafenib] (10 µM) 0
Cc1ccc(OCCSc2ncccn2)c(Br)c1 [ZLN024 (hydrochloride)] (10 µM) 0
Nc1ncnc2c1c(-c1ccc(Oc3ccccc3)cc1)nn2C1CCCC1 (2.5 µM) 0
COc1ncc(Cl)cc1S(=O)(=O)Nc1ccc(F)c(C#Cc2cnc(N)nc2)c1F (2.5 µM) 0
Cc1ccc(CNc2ncnc3ccc(-c4ccc(CO)o4)cc23)o1 (10 µM) 0
NC(=O)c1nnc(N[C@@H]2CCCC[C@@H]2N)nc1Nc1cccc2cc[nH]c12 (10 µM) 0
CNc1nc(Nc2ccc(C(=O)N3CCOCC3)cc2OC)nc2[nH]cc(Cl)c12 (2.5 µM) 0
CCNc1nc(Nc2cc(F)c(C(=O)N3CCOCC3)cc2OC)ncc1C(F)(F)F [GNE-7915 (tosylate)] (10 µM) 0
CCN1CCN(Cc2ccc(Nc3ncc(F)c(-c4cc(F)c5nc(C)n(C(C)C)c5c4)n3)nc2)CC1 [Abemaciclib] (2 µM) 0
COCCNc1nc2ccc(C#CC3(O)CCCCC3)cc2n1-c1ccnc(N)n1 (10 µM) 0
OCCn1cc(-c2ccc3c(c2)CC/C3=N\O)c(-c2ccncc2)n1 (10 µM) 0
O=C1N[C@@H](Cc2c[nH]c3ccccc23)C(=O)N2CCC[C@@H]12 [Brevianamide F] (10 µM) 0
Cn1nccc1Nc1nccc(-c2ccn([C@H](CO)c3ccc(Cl)c(F)c3)c(=O)c2)n1 [Ravoxertinib] (10 µM) 0
O=C(NCCN1CCOCC1)c1cc2c(Oc3ccc(NC(=O)C4(C(=O)Nc5ccc(F)cc5)CC4)cc3)ccnc2[nH]1 [Tyrosine kinase inhibitor] (10 µM) 0
COc1cc2c(N3CCN(C(=O)Nc4ccc(OC(C)C)cc4)CC3)ncnc2cc1OCCCN1CCCCC1 [Tandutinib (hydrochloride)] (10 µM) 0
COc1cc(/C=C/C(=O)NCC(O)c2ccc(O)cc2)ccc1O (stereo not given) [N-Feruloyloctopamine] (2.5 µM) 0
COc1cc2nccc(Oc3ccc(NC(=O)NC4CC4)c(Cl)c3)c2cc1C(N)=O [Lenvatinib (mesylate)] (10 µM) 0
CN1CCN(c2cccc(Nc3nc4c(-c5ccc(S(C)(=O)=O)cc5)cccn4n3)c2)CC1 (10 µM) 0
C=C(CC[C@@H](C(=O)O)[C@H]1[C@H](O)C[C@@]2(C)C3=C(CC[C@]12C)[C@@]1(C)CC[C@H](OC(C)=O)C(C)(C)[C@@H]1CC3)C(C)C [Pachymic acid] (10 µM) 0
O=c1[nH]c(=O)n([C@@H]2O[C@H](CO)[C@@H](O)[C@@H]2O)cc1/C=C/Br [Sorivudine] (10 µM) 0
NC(=O)c1ccc(-c2nc(-c3ccc4c(c3)OCCO4)c(-c3ccccn3)[nH]2)cc1 (10 µM) 0
CC#CC(=O)Nc1ccc2ncnc(Nc3cccc(Br)c3)c2c1 (10 µM) 0
CCc1c(C(=O)NNC(=O)C(O)c2cc(F)cc(F)c2)ccc(O)c1C (stereo not given) (10 µM) 0
CC(=O)c1c(C)cc2cccc(O)c2c1O [Nepodin] (10 µM) 0
Cc1c(-c2c(F)cc(C(N)=O)c3[nH]c4c(c23)CC[C@H](C(C)(C)O)C4)cccc1-n1c(=O)c2cccc(F)c2n(C)c1=O (2.5 µM) 0
CCc1cc2c(cc1N1CCC(N3CCOCC3)CC1)C(C)(C)c1[nH]c3cc(C#N)ccc3c1C2=O [Alectinib] (10 µM) 0
FC(F)c1nc2ccccc2n1-c1nc(N2CCOCC2)nc(N2CCOCC2)n1 (2 µM) 0
FC(F)(c1ccc2ncccc2c1)c1nnc2ccc(-c3ccncc3)nn12 (10 µM) 0
Cn1cc(-c2cnn3c(N)c(Br)c([C@@H]4CCCNC4)nc23)cn1 (2.5 µM) 0
C[C@@H]1COCCN1c1cc(C2([S@@](C)(=N)=O)CC2)nc(-c2ccnc3[nH]ccc23)n1 [(S)-Ceralasertib] (10 µM) 0
CC#CC(=O)N1CC[C@@H](n2c(=O)n(-c3ccc(Oc4ccccc4)cc3)c3c(N)ncnc32)C1 [Tirabrutinib] (10 µM) 0
C[C@@]1(c2ncncc2F)NC(=O)c2cc(-c3cn[nH]c3)ccc21 (10 µM) 0
COc1ccc(Cl)c(Nc2nc3ccccc3nc2NS(=O)(=O)c2cccc(NC(=O)C(C)(C)N)c2)c1 [Pilaralisib] (10 µM) 0
O=Nc1c(-c2c(O)[nH]c3ccc(I)cc23)[nH]c2ccccc12 [5-Iodo-indirubin-3'-monoxime] (10 µM) 0
COc1cc2nccc(Oc3ccc(NC(=O)NC4CC4)c(Cl)c3)c2cc1C(N)=O [Lenvatinib] (10 µM) 0
C[C@]1(O)CCN(c2nc(N3C[C@H](O)[C@@H](O)C3)cc(C(F)(F)F)c2C#N)C1 (10 µM) 0
Cn1cnc(Cn2ccc3ccc(CNCc4[nH]c5ccccc5c4[C@H]4NC(=O)c5ccc(O)cc54)cc32)c1 (10 µM) 0
